Among the data in doi:10.1101/2025.09.22.677689 are binding values, retold here.

Amino acid sequences for entries named in this document (tags omitted).
UniProt O88271: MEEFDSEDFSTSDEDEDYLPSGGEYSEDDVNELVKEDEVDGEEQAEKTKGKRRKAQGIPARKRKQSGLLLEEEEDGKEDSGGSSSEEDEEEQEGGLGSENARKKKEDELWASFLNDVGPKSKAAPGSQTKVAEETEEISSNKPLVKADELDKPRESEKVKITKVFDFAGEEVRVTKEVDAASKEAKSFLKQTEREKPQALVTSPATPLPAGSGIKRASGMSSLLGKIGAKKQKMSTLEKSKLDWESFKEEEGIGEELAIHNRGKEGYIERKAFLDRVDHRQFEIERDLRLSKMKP
UniProt P28740: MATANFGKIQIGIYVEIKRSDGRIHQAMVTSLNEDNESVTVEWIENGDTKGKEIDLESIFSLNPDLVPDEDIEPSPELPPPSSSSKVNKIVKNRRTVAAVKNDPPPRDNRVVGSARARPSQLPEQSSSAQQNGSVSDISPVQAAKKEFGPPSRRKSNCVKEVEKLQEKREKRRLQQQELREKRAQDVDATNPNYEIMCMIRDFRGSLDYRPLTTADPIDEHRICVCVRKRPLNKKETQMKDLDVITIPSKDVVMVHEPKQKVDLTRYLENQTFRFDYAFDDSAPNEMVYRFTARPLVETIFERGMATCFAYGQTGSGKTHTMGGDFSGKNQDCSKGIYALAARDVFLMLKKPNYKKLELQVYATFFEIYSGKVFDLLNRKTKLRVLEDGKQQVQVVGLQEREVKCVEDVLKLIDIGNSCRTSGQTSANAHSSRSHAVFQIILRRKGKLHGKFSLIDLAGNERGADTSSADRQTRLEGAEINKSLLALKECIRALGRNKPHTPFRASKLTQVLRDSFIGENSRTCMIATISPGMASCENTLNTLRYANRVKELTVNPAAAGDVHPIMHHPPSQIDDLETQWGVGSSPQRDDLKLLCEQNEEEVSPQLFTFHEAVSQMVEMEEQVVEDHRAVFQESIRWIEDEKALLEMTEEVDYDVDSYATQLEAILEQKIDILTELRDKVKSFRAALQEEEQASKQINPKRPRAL

These are yes or no findings as the source states them, for the method shown. In cells and extracts the contact can be indirect. Here binding means that the protein was enriched with, or labelled near, the bait; the list need not be complete.

B1: Kif2c/MCAK (endogenous, NIH3T3) (protein, UniProt Q922S8 1-721)
chain: MESLHARLFPGLSINIQRSNGLIHPANISTVNVEKSCVSVEWIEGGTTKGKEIDIDDVAAINPELLQLLPLRPKDSLPLQENVTVPKQKRKSVNSKIPALKEGLRSRSTRMSTVSEVRIPAQENEMEVELPVPTNSRKQFAIPSHPRASCSTVTELPLLMVSEEAEEQAHSTRSTSSANPGNSVRRKSCIVKEMEKMKNKREEKRAQNSELRIKRAQEYDSSFPNWEFARMIKEFRVTMECSPLTVTDPIEEHRICVCVRKRPLNKQELAKKEIDVISVPSKCLLLVHEPKLKVDLTKYLENQAFCFDFAFDETASNEVVYRFTARPLVQTIFEGGKATCFAYGQTGSGKTHTMGGDLSGKSQNASKGIYAMASRDVFLLKNQPRYRNLNLEVYVTFFEIYNGKVFDLLNKKAKLRVLEDSRQQVQVVGLQEYLVTCADDVIKMINMGSACRTSGQTFANSNSSRSHACFQILLRTKGRLHGKFSLVDLAGNERGADTSSADRQTRMEGAEINKSLLALKECIRALGQNKAHTPFRESKLTQVLRDSFIGENSRTCMIAMISPGISSCEYTLNTLRYADRVKELSPHSGPSGEQPVQMETEVMEASSNGTSLTGNEEEELSSQMSSFNEAMTQIRELEERALEELREIIQQGPNWLELSEMTDQPDYDLETFVNKAESALTQQAKQAKHFSALREVIKALRLAMQLEEQASKQINSKKRHQ
B2: RCC1 (endogenous, NIH3T3) (protein, UniProt Q8VE37 1-421)
chain: MPPKRIAKRRSPPEDAIPKSKKVKVSHRSHNTEPGLVLTLGQGDVGQLGLGESVLERKKPALVPLLQDVVQAEAGGMHTVCLSQSGQVYSFGCNDEGALGRDTSVEGSEMVPGKVELQEKVVQVSAGDSHTAALTEDGRVFLWGSFRDNNGVIGLLEPMKKSMVPVQVQLDAPVVKVASGNDHLVMLTNDGDLYTLGCGEQGQLGRVPELFANRGGRQGLGRLLVPRCVLLKSRGTRGRVRFQDAFCGAYFTFAISREGHVYGFGLSNYHQLGTPGTGSCFIPQNLTSFKNSTKSWVGFSGGQHHTVCMDSEGKAYSLGRAEYGRLGLGEGAEEKSIPTLISRLPVVSSVACGASVGYAVSKDGRVFAWGMGTNYQLGTGQDEDAWSPVEMTGKQLENRVVLTVSSGGQHTVLLVKDQAQS

In this assay the target is 3xFLAG tagged CFDP1 (mouse), stably expressed in NIH3T3 cells (mouse) (UniProt O88271). Put plainly: affinity purification with mass spectrometry; FLAG M2 magnetic beads, nuclear extracts of NIH3T3 cells stably expressing 3X FLAG-CFDP1, ~16 h at 4°C, elution with 3X FLAG peptide.
For “Kif2a (endogenous, NIH3T3) (from UniProt P28740 1-705)”, the binding result is given as “binds”. Next, “TPX2 (endogenous, NIH3T3) (from UniProt A2APB8 1-745)”: “binds”. Next, B1: “binds”; B2: “binds”.
